# Assay results

Data taken from PubChem BioAssay AID1224904, deposited by Broad Institute (2016).

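293T-iDUX4 dual-reporter cells; luminescence of the tet-on Italica luciferase control is read after 24 h. The test concentration is not given here. Percent change in the Italica control signal; more negative values mean stronger inhibition, which points to nonspecific, tet-on or cytotoxic effects.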

Values are in %. Common to all entries: measured here: Italica tet-on control reporter. This is a side read-out of the assay, for part of the compounds, not drawn at random.

compound	activity change (%)
O=C(C[C@@H]1CC[C@H]2[C@@H](COC[C@@H](O)CN2Cc2ccc(Oc3ccccc3)cc2)O1)N1CCN(c2ccccc2)CC1	-81.11
C/C=C/c1ccc([C@@H]2[C@H](CO)N(CC3CCCC3)C23CN(C(=O)CC2CC2)C3)cc1	-16.75
C[C@@H](NC(=O)C[C@H]1C[C@H]2c3cc(NC(=O)Nc4ccccc4F)ccc3O[C@H]2[C@@H](CO)O1)c1ccccc1	-3.291
Cc1ccc(-c2ccc([C@H]3[C@@H](CO)N4CCCCN(S(=O)(=O)c5ccccc5C)C[C@@H]34)cc2)cc1	-33.45
COc1ccccc1-c1ccc2c(c1)[C@H]1[C@H](CCN1S(=O)(=O)c1ccccc1OC)[C@@H](CO)N2	-65.62
O=C(C1CCCC1)N1[C@H](CO)[C@H](c2ccccc2)C12CN(CCC(F)(F)F)C2	2.809
C[C@@H]1CN([C@H](C)CO)C(=O)c2ccccc2-c2ccccc2CO[C@@H]1CN(C)C(=O)Nc1cccc(F)c1	-4.2
O=C(C[C@@H]1CC[C@@H]2[C@H](COC[C@H](O)CN2S(=O)(=O)c2ccccc2F)O1)N1CCC(Cc2ccccc2)CC1	-1.823
COc1ccc2c3c(n(C)c2c1)[C@@H](CO)N(C(=O)c1cccc(F)c1)CC31CCN(C(=O)c2cccc(F)c2)CC1	-7.971
O=C(C[C@@H]1C[C@@H]2c3cc(NC(=O)Nc4ccc(C(F)(F)F)cc4)ccc3O[C@@H]2[C@@H](CO)O1)NCc1ccc(Cl)cc1	-3.704
CCCC#Cc1ccc([C@@H]2[C@H](CO)N3C(=O)CN(C(=O)Nc4cccc(F)c4)C[C@@H]23)cc1	-27.18
O=C(Nc1cc(F)ccc1F)N1CCCCN2[C@H](CO)[C@H](c3ccc(C4=CCCCC4)cc3)[C@@H]2C1	-4.736
COCC(=O)N1CC2(C1)CN(Cc1cc(F)ccc1F)[C@H](CO)c1[nH]c3cc(OC)ccc3c12	-49.14
CCCN1C[C@@H](C)[C@@H](OC)CN(C)C(=O)c2cc(NC(=O)C3CCC3)ccc2OC[C@@H]1C	5.397
O=C(Cc1ccccn1)N[C@@H]1CC[C@@H](CCn2cc(-c3ccc(F)cc3)nn2)O[C@H]1CO	-4.381
O=C(Cc1cccnc1)N1CCCCN2[C@H](CO)[C@H](c3ccc(C#CC4CCCC4)cc3)[C@H]2C1	-16.01
O=C(C[C@H]1CC[C@H]2[C@@H](COC[C@H](O)CN2Cc2ccccc2F)O1)N1CCc2ccccc2C1	-11.99
Cc1cccc(S(=O)(=O)N2CC[C@@H]3[C@@H](CO)N(C)c4ccc(-c5ccccc5F)cc4[C@@H]32)c1	-21.31
C[C@H](CO)N1C[C@H](C)[C@H](CN(C)C(=O)c2cc(Cl)cc(Cl)c2)OCc2ccccc2-c2ccccc2C1=O	-74.84
COc1ccccc1CN(C)C[C@@H]1OCc2ccccc2-c2c(n(C)c3ccccc23)C(=O)N([C@H](C)CO)C[C@@H]1C	-5.655
COc1ccc(NC(=O)N2CCCCN3[C@@H](CO)[C@@H](c4ccc(-c5ccccc5F)cc4)[C@@H]3C2)cc1	-23.86
O=C(c1ccccc1F)N1CC(=O)N2[C@H](CO)[C@@H](c3ccc(C#Cc4ccccc4)cc3)[C@H]2C1	-11.31
O=C(O)[C@@H]1[C@@H](CO)[C@@H]2Cn3c(ccc(/C=C/c4ccccc4)c3=O)[C@@H]2N1Cc1ccc2c(c1)OCO2	-6.204
O=C(c1cccc(F)c1)N1CCCCN2[C@H](CO)[C@H](c3ccc(/C=C/c4ccccc4)cc3)[C@@H]2C1	-29.78
COc1ccc2c3c(n(C)c2c1)[C@H](CO)N(Cc1cccc(F)c1)CC31CCN(C(=O)Cc2ccccc2)CC1	-87.12
COc1cccc(S(=O)(=O)N2CCCCN3[C@H](C2)[C@@H](c2ccc(C#CC4CC4)cc2)[C@@H]3CO)c1	-12.2
COc1cccc(CN2CCCCN3[C@@H](CO)[C@H](c4ccc(C#Cc5cccnc5)cc4)[C@@H]3C2)c1	-2.805
COc1ccccc1S(=O)(=O)N(C)C[C@@H]1OCc2ccccc2-c2c(n(C)c3ccccc23)C(=O)N([C@@H](C)CO)C[C@H]1C	-26.04
O=S(=O)(c1ccc(F)cc1)N1CC[C@@H]2[C@H](CO)Nc3ccc(-c4ccccc4F)cc3[C@@H]21	-62.18
O=C(C[C@@H]1CC[C@H]2[C@@H](COC[C@@H](O)CN2Cc2cccc(Cl)c2)O1)N1CCCCC1	-7.805
CN(C)C(=O)c1cccc(-c2ccc3c(c2)[C@@H]2[C@@H](CCN2C(=O)c2ccc(F)cc2)[C@H](CO)N3C)c1	-23.24
COc1ccc(NC(=O)N2CCCCN3[C@@H](CO)[C@H](c4ccc(-c5ccccc5F)cc4)[C@@H]3C2)cc1	-5.545
COc1cccc(NC(=O)Nc2ccc3c(c2)C(=O)N(C)C[C@@H](OC)[C@@H](C)CN(C)[C@H](C)CO3)c1	-6.438
C[C@@H]1CN([C@@H](C)CO)C(=O)c2c(c3ccccc3n2C)-c2ccccc2CO[C@H]1CN(C)S(=O)(=O)c1ccc(Cl)cc1	-11.24
CCCN1CCC2(CC1)CN(Cc1ccccc1OC)[C@@H](CO)c1c2c2ccc(OC)cc2n1C	-17.86
CCCNC(=O)N1CC2(CN(CC3CCCCC3)C2)c2c(n(C)c3cc(OC)ccc23)[C@@H]1CO	-26.04
COc1cccc(C(=O)Nc2ccc3c(c2)C(=O)N(C)[C@H]2CC[C@H](CC(=O)N[C@@H](C)c4ccccc4)O[C@H]2CO3)c1	-14.32
COc1ccc2c3c(n(C)c2c1)[C@@H](CO)N(C(=O)Nc1ccccc1F)CC31CN(C(=O)c2ccccc2F)C1	-46.08
COc1ccccc1NC(=O)N1CCCCN2[C@@H](CO)[C@@H](c3ccc(-c4cccc(C#N)c4)cc3)[C@@H]2C1	-32.55
CCC(=O)N1CC[C@@H]2[C@H]1c1cc(C#Cc3cccc(F)c3)ccc1N(C)[C@H]2CO	-0.04389
COc1ccccc1NC(=O)N1CCCCN2[C@H](CO)[C@@H](c3ccc(C#CC4CCCC4)cc3)[C@@H]2C1	-2.467
C/C=C/c1ccc(C2[C@@H]3CN(S(=O)(=O)c4cccc(OC)c4)C[C@H]2N3)cc1 (some centres unmarked)	-8.123
CC(C)NC(=O)N1CCCCN2[C@H](CO)[C@@H](c3ccc(C#Cc4ccccc4)cc3)[C@@H]2C1	-21.57
COc1cccc(C(=O)Nc2ccc3c(c2)OC[C@H](C)N(CCc2ccccc2)C[C@H](C)[C@H](OC)CN(C)C3=O)c1	-16.04
O=C(Nc1ccc2c(c1)[C@@H]1C[C@@H](CC(=O)N3CCc4ccccc4C3)O[C@@H](CO)[C@@H]1O2)NC1CCCC1	-14.51
COc1cccc(CN2CCCCN3[C@H](CO)[C@@H](c4ccc(C#Cc5cccnc5)cc4)[C@H]3C2)c1	-37.78
COC(=O)[C@H]1[C@H](CO)[C@H]2Cn3c(ccc(/C=C/c4ccccc4)c3=O)[C@H]2N1CC1CCCCC1	-8.771
O=C(C[C@H]1C[C@@H]2c3cc(NC(=O)Nc4ccc(C(F)(F)F)cc4)ccc3O[C@@H]2[C@@H](CO)O1)NCc1ccccn1	-36.39
N#C[C@H]1[C@H](c2ccccc2-c2ccc(F)cc2)[C@@H](CO)N1C(=O)Cc1ccccc1	-2.915
CC(C)CC#Cc1ccc([C@H]2[C@@H](CO)N3C(=O)CN(S(=O)(=O)c4cccc(F)c4)C[C@@H]23)cc1	-9.228
O=C(c1ccccc1)N1CC[C@@H]2[C@H](CO)Nc3ccc(-c4ccc(F)cc4)cc3[C@@H]21	-25.75
COCC(=O)N1CCCCN2[C@H](CO)[C@@H](c3ccc(C#Cc4ccccc4)cc3)[C@@H]2C1	-27.93
CCCNC(=O)N1[C@H](CO)[C@H](c2ccccc2-c2cccc(C)c2)[C@@H]1C#N	-47.56
O=C(Nc1ccc(F)cc1)N1CCCCN2[C@H](CO)[C@H](c3ccc(-c4cccc(F)c4)cc3)[C@@H]2C1	-5.943
COc1cccc(-c2ccc(C3[C@@H]4CN(Cc5cccc(F)c5)C[C@H]3N4)cc2)c1 (some centres unmarked)	-30.83
CO[C@H](CN(C)S(=O)(=O)c1ccc(F)cc1)[C@H](C)CN(Cc1ccccc1Cl)[C@H](C)CO	0.3472
C[C@H](CO)N1C[C@H](C)[C@@H](CN(C)C(=O)NC2CCCCC2)OCCCC[C@H](C)Oc2ccc(NC(=O)Cc3ccccc3)cc2C1=O	-26.86
O=S(=O)(c1ccccc1F)N1CC[C@H]2[C@H](CO)Nc3ccc(C4=CCCCC4)cc3[C@H]21	-73.43
CO[C@@H]1CN(C)C(=O)c2ccc(NC(=O)NC(C)C)cc2OC[C@H](C)N(Cc2ccc(-c3ccccn3)cc2)C[C@H]1C	-11.21
O=C(C[C@@H]1CC[C@@H]2[C@H](COC[C@@H](O)CN2Cc2cc(F)ccc2F)O1)N1CCc2ccccc2C1	-16.11
CC(C)NC(=O)N1[C@H](CO)[C@@H](c2ccccc2)C12CN(Cc1cc(F)cc(F)c1)C2	-7.603
CO[C@H]1CN(C)C(=O)c2cc(NC(=O)c3ccc4c(c3)OCO4)ccc2OC[C@@H](C)N(CCC(F)(F)F)C[C@@H]1C	0.6793

For reference, 7 entries once more:

{"compound": "O=C(C[C@H]1C[C@@H]2c3cc(NC(=O)Nc4ccc(C(F)(F)F)cc4)ccc3O[C@@H]2[C@@H](CO)O1)NCc1ccccn1", "activity change (%)": "-36.39"}
{"compound": "C/C=C/c1ccc([C@@H]2[C@H](CO)N(CC3CCCC3)C23CN(C(=O)CC2CC2)C3)cc1", "activity change (%)": "-16.75"}
{"compound": "CCCN1C[C@@H](C)[C@@H](OC)CN(C)C(=O)c2cc(NC(=O)C3CCC3)ccc2OC[C@@H]1C", "activity change (%)": "5.397"}
{"compound": "COCC(=O)N1CC2(C1)CN(Cc1cc(F)ccc1F)[C@H](CO)c1[nH]c3cc(OC)ccc3c12", "activity change (%)": "-49.14"}
{"compound": "O=C(C1CCCC1)N1[C@H](CO)[C@H](c2ccccc2)C12CN(CCC(F)(F)F)C2", "activity change (%)": "2.809"}
{"compound": "C[C@H](CO)N1C[C@H](C)[C@H](CN(C)C(=O)c2cc(Cl)cc(Cl)c2)OCc2ccccc2-c2ccccc2C1=O", "activity change (%)": "-74.84"}
{"compound": "COc1cccc(C(=O)Nc2ccc3c(c2)OC[C@H](C)N(CCc2ccccc2)C[C@H](C)[C@H](OC)CN(C)C3=O)c1", "activity change (%)": "-16.04"}